[ ]: non-standard residue; d: D form. The star is where a group is joined. Phe(3-F) = N[C@@H](Cc1cccc(F)c1)C(=O)O; ACC = NC(=O)Cc1cc(=O)oc2cc(N*)ccc12; Nle = CCCC[C@H](N)C(=O)O; OBn = c1ccc(CO*)cc1; Bn = c1ccc(C*)cc1

A short description of the series: general procedure: Fmoc solid-phase peptide synthesis; Rink amide RA resin (loading 0.74 mM/g); 2-chlorotrityl chloride resin (loading 1.60 mM/g); HATU/collidine; HBTU; DICI/HOBt. The following applies: whole synthesis, analytical HPLC, Discovery Bio Wide Pore C8 column.
As for Ac-Tyr(2,6-Cl2-Z)-Cha-His(Bzl)-Arg-ACC, the “final HPLC purity” value is recorded as not below 99%.

For “Ac-Tyr(2,6-Cl2-Z)-2-Aoc-Nle(O-Bzl)-Arg-ACC”, the “final HPLC purity” value is on record as not below 97%.

Turning to Ac-Tyr(Bzl)-Nle-His(Bzl)-Arg-ACC, the “final HPLC purity” value is listed as not below 99%.

As for Ac-Tyr(2,6-Cl2-Z)-Nle-Glu(Bzl)-Arg-ACC, the “final HPLC purity” value is not below 99%.

Take “biotin-PEG(4)-Tyr(2,6-Cl2-Z)-Nle-Glu(Bzl)-ArgP(OPh)2”: the “final HPLC purity” value is reported as not below 95%.

Consider Ac-I[Nle]NR-{ACC}, for which the “final HPLC purity” value is not below 99%.

Ac-Y(Bn)[Phe(3-F)]E(OBn)R-{ACC}: the “final HPLC purity” value was not below 99%.

Ac-Lys(2-Cl-Z)-2-Aoc-His(Bzl)-Arg-ACC: the “final HPLC purity” value is not below 99%.

Regarding “Ac-Tyr(Bzl)-Tyr(2,6-Cl2-Z)-His(Bzl)-Arg-ACC”, the “final HPLC purity” value is not below 95%.

Take Ac-Tyr(2,6-Cl2-Z)-hCha-His(Bzl)-Arg-ACC: the “final HPLC purity” value is given as not below 99%.

On to Ac-Bpa-2-Aoc-His(Bzl)-Arg-ACC, for which the “final HPLC purity” value is given as not below 99%.

Take “Ac-Y(Bn)[Nle]E(OBn)R-{ACC} (SMILES CCCC[C@H](NC(=O)[C@H](Cc1ccc(OCc2ccccc2)cc1)NC(C)=O)C(=O)N[C@@H](CCC(=O)OCc1ccccc1)C(=O)N[C@@H](CCCNC(=N)N)C(=O)Nc1ccc2c(CC(N)=O)cc(=O)oc2c1)”: the “final HPLC purity” value is recorded as not below 99%.

Turning to Ac-Tyr(Bzl)-2-Aoc-Glu(Bzl)-Arg-ACC, the “final HPLC purity” value was not below 99%.

Ac-Tyr(Bzl)-Phe(3-F)-His(Bzl)-Arg-ACC: the “final HPLC purity” value was not below 99%.

With Ac-Tyr(2,6-Cl2-Z)-Dht-His(Bzl)-Arg-ACC, the “final HPLC purity” value is given as not below 99%.

On to “Ac-Tyr(Bzl)-Tyr(2,6-Cl2-Z)-Glu(Bzl)-Arg-ACC”, for which the “final HPLC purity” value was not below 99%.

For “Ac-Tyr(2,6-Cl2-Z)-2-Aoc-Glu(Bzl)-Arg-ACC”, the “final HPLC purity” value is listed as not below 95%.

On to Ac-Tyr(Bzl)-2-Aoc-His(Bzl)-Arg-ACC, for which the “final HPLC purity” value is listed as not below 99%.

On to Ac-Tyr(2,6-Cl2-Z)-Nle-His(Bzl)-Arg-ACC, for which the “final HPLC purity” value is reported as not below 99%.

With “Ac-Tyr(2,6-Cl2-Z)-Phe(3-F)-Glu(Bzl)-Arg-ACC”, the “final HPLC purity” value was not below 99%.

As for “Ac-Tyr(2,6-Cl2-Z)-2-Aoc-hSer(Bzl)-Arg-ACC”, the “final HPLC purity” value is recorded as not below 99%.

Regarding “Ac-Tyr(2,6-Cl2-Z)-Phe(3-F)-His(Bzl)-Arg-ACC”, the “final HPLC purity” value is given as not below 99%.

As to “Ac-Tyr(2,6-Cl2-Z)-Tyr(2,6-Cl2-Z)-His(Bzl)-Arg-ACC”, the “final HPLC purity” value is listed as not below 99%.

For the substance “Ac-Tyr(2,6-Cl2-Z)-Tyr(2,6-Cl2-Z)-Glu(Bzl)-Arg-ACC”, the “final HPLC purity” value is listed as not below 99%.

As for “biotin-PEG(4)-Tyr(2,6-Cl2-Z)-Dht-His(Bzl)-ArgP(OPh)2”, the “final HPLC purity” value is not below 97%.

On to “Ac-Tyr(2,6-Cl2-Z)-2-Aoc-His(Bzl)-Arg-ACC”, for which the “final HPLC purity” value is reported as not below 99%.

Values taken from article PMC10041521 (Journal of Medicinal Chemistry, 2023).
